Measurements as given in paper PMC10743813.
These are yes or no findings as the source states them, for the method shown. Binding seen in cells or lysates may run through a third protein. A yes stands for co-enrichment or nearness to the bait. Other partners may have been found.

By UniProt entry, the sequences of proteins in these tests, tags left out. Where a name states a change or a piece, a line headed by the entry shows the natural chain unless it says otherwise.
UniProt Q23K54: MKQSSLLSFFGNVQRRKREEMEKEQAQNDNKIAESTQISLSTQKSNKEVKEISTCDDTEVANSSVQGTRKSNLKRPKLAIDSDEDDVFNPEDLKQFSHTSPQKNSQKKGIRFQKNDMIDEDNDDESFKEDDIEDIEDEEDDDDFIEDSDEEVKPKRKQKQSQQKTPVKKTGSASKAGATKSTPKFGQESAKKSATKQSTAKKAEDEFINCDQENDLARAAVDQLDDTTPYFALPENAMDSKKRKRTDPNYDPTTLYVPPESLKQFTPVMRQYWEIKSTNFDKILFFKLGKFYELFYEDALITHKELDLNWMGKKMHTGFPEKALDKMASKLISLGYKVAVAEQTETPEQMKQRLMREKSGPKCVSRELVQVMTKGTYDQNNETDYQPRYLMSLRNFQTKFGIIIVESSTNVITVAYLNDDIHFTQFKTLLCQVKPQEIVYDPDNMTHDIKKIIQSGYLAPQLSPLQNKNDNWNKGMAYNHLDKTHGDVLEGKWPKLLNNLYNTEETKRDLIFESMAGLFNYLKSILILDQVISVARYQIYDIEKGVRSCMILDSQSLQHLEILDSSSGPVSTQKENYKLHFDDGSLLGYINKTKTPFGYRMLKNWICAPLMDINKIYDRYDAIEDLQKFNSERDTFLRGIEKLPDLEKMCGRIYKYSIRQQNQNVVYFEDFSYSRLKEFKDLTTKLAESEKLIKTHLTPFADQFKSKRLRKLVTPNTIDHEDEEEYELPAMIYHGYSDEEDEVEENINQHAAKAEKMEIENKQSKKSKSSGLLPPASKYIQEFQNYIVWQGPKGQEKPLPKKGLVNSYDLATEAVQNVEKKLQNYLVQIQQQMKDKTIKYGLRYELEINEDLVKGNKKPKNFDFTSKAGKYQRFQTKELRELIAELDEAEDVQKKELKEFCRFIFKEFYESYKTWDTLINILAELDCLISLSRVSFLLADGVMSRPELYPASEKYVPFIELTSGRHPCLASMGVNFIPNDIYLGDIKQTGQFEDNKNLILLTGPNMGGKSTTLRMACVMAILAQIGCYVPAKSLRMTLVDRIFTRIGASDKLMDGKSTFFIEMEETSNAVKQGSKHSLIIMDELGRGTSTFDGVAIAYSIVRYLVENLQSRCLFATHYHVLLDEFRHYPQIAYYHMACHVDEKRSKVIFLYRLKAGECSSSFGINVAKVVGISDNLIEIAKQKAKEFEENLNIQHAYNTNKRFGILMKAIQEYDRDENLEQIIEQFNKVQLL

B1: TTHERM_00418280 (protein, UniProt Q22NW7 1-888)
chain: MLSRGVKNLISLQKSYLQSKNFIGLTLRNKYYFRNNNNDEGEDRAPEGFEKFKRRSKKKADQSQGEQTVEQLEKENRKDKEEVEETEDVSASKQKQVNEEDDDPFKKFNRKSNNDKQSSKSSKQSVEKKEESSTESKQQDNQEVNKDESDKNKKDWSFTYSPKIFGFEDKNSKKKDEQKNKQEENQNEKKDDEKEDHNEHENKRKNEDSSQSEFAKKFKEFWNSGNNKKYISAAIAISILGPSLYYQYETQQYISYTEFYKNYLQTDNVRSIAIQRLPIGNNLKTYAKIVTKDGSVKKIVLGNVDHFLEQVEQYQVEKGRDIETLIPISFEYLVDLNKTLDYSFSWLSTMATIAIGYLFYKSMKSGLGSMKGGGGGQDIFGMGKSNVKVFGIDSKVTTRFKDVAGQDEAKQEIQEFVDFLKKPAKYKAIGAKLPKGALLTGPPGTGKTLLAKACAGEAGVPFFFISGSDFVEMFVGVGASRVRDLFKQAKQQSPSIIFIDEIDAVGRKRENKMGGNDERDNTLNQLLVEMDGFGTDANVIVLAATNRKELLDPALTRPGRFDRTIEVTNPDIDGRKQIFMVHLKPLKLHPSKTMEEYAKRLATLTPGFSGADIMNLCNEAAIMAARKNKKFIESIDFELASERVIAGLEKKRIVSEEERKIVAVHESGHAVTSWFLEGGHPLLKLTIIPRTKGSLGFAQYLPNESSLESKEELLDRLCTILGGRCAEEEFFGKITTGAYDDLKRAYELCHALVTKYGMSEKLGYVGYIENDYSKTYSDQTNTLIDEEIKRLIDEATQRTRDLIKKYRSQIEGLSSALLEKETLDLRQISTILGERPFPPKSNYKAYLELQVQDDAEKVQEQAESTIEGESNTHENKEKENASAEKASQ
B2: TTHERM_00586710 (protein, UniProt I7M8T5 1-694)
chain: MSNDNKSNASSRLSALNSQMPELSPSQLLHSYRNRSKVDRQGLYETFYGPKWEFRNKVYDIICNNSEKFSAPYIDEHDRERTRYAAFKELHFIQKSLNMGYAEYQKDPHAFSMTSNAVYSWSPAICVKYGVHFSLYGKTLMNLGTEKHLPYIYRMMKLEDIGSFGLTEMGHGSNVRGIKTTAIYDPQSNEFIINTPEEVDMKFWIGATAQLANMTVCWAQLYVEGKCHGVHAFLVPIRNKDTHRVMPGITVGDCGPKNGLDGIDNGFMIFHNVRIPYDNLLDKFSQIENGKFKTWIESDDKRFGFQMASLSGGRVQVACNSNQNSIIAVAIAGRYSTIRKQFGAPGKPEQPIIEYPLTQYRIIPNVATAIVLQLSTITLSILWDENQKHLLDVKNTLINELHAISSAIKAISTWTAQRIITESRQILGGHGFSTFNRFGQLYNDNDVNVTWEGDNNVLLQQTGKFLLDSAKKLMKGKKLPFKCTSYISLDPAEGQQSELNSNEDFFNQGKLLKALQWRVNLLLQKTGLKMQEYMQVSKNGWDAFNNAQPFYSVELAKAFGDTWSAEQAIETISKVQNPENKRVLSDFVTLYLLETINKDIGNFRFGGYINCQQYEQIRSSILKLCNKLKDEFIAVLDALAPPDFILQAPFGASDGDIYNRYIGLIYSAKSTFKRPDWWKEVHKAHKKYHFEIDA
B3: TTHERM_00016060 (protein, UniProt Q22RI1 1-260)
chain: MKLDNTIVALVTGGTSGLGEATVYALLEKGVRVFIADRNEEKGLQIQTKYGQDRCRFQKCDVSDEAQVKALVDACVATFGAIHILLNSAGVISAGLIVGGKNQDQTIKTEEMNRVLGVNVVGTFNVTKYVALQMVKQQPLNEFKERGVIVNVASVAGIEGQRGQTVYAASKGAIIGMTLPLARDLGKFGVRVCTIAPGIFQTPMGAGMSDKIIEALSKASALGRVGNPTEFADAILGLATNSFVTGSIFRLDGGIRLPHM
B4: TTHERM_00151470 (protein, UniProt I7MGG8 1-405)
chain: MISRRLLHCFNRSSKLLNNKNQYRFESLNDTSNLTEDQVLVQQAALNFTKEHLLPFASEWDQKSQSPIEVYKEAGKLGFACIYSSPDHGGSGMDRVSASLVFEALATACVSTSSYLSILNMNHWIIDTYGNEKQKAEWLPQLSTVEKFSSYCLTEPGSGSDAANMKTFAKKDGGDYVINGSKCFISNAGFSDLYVVMCKTGENERSCILVPSDAKGLSFGKPEVKMGWHASPTASITFDNVRVPQSNLISTEGNGFKIAMTALDGGRVNIASTSLGSAAQCLAKTKEYVGQRKQFGKSIDSFQNTQFRIAEMATDLIASRLLVREAAKKIDLNHPNKTLYASMAKIQATEKCYNIVDQCLQLHGGYGYISEYNIERHLRDLRVNRILEGTNEIMRLIVSRQVIKQ
B5: TTHERM_00622710 (protein, UniProt Q241B3 1-631)
chain: MFARGITKATQLTLRNTKQFSTMAGFSGLKSYSQFFTKSNMNLKIGLLGLIGVGIAGYSTSQSYHSDEYYEKVIPANLQEGQKIDVQVGPKEEDSVLVAKVDGKYYCVSNKCPHFGFSLSKGVMFYDKVVCPLHNAAFSVKDGAAEGGPVVNGLENFEIVEKDGNLHIKVPKAKLNVPKPFDMVKRDPNDKRKFVIVGGGPAGISAAETLRQSGYTGQITILSKEKFIPYDRTILSKALFFADINKLQYRSKEFLESYGIEVVNEVEVTEIDTERHFVQTKNQDHIHFDKLLLATGGSPNRIPVEGVNSKNVFTLREFSDLESLKNNFQSSKKVVVIGASFIGLETAASVKDFLKDKVDITVVDQSKVPYQRVLGSEVGAAIKKLHADNGIKFNLGVGIKSIESQNGVAKRVVLSDGTSLEADMVLIGAGVSPNTRFVGEKLEKDNYGALKTDVFLQTSHPDVFAAGDIANYPYHYTGQRARFEHINSSIYQGSIAALNMVGQKTPCGEIPFFWTRFWNKSLHYTGYAPNYDEVHIQGSLDKLEFVAWYIKNDRVVAVSAMNKGPVAMVVNEAMKQNVMPSGTEIKNNIVKYEDIQKRIADRGRNCKCSRGANCCSARKLQQNQASQSAKI
B6: TTHERM_00530250 (protein, UniProt I7MGE1 1-505)
chain: MVPDNPAIIDPILNNLKKTFRTGKTRDLAFRKQQLRNLLTGIKEMEDEISEAVQKDLGYQDPKVAKFLNLLPTIGDIEYILNNFESWAQKRSVDVSLVVGPGSGYIIPEPYGVTLVIGAWNYPFNTTVAPAANAIAAGNCVALKPSEMSPHNSNVMKKLFDKYLDKDCYTVIEGQVEVAKAICYKPWDHIIFTGSPQKGKLVAQAASQNLIPCTLELGGKSPTIVDKTANLNVAVARIAQGKIGNSGQTCIAPDFAIVDQDIKDQFLSSLKEAMITQISNNPETSRDYNRMINEFHTKRMESMIKTHGGQIYYGGKVDVSKKFVEPTIIVNPKLDSECMQDEIFGPIFPVIFYKNFDEVINFINDRPKPLALYYFGENKTHKDRLLNETSSGHLSFNECVMHYINNTLPFGGVGNSGSGVIHGKLGFENCSHLKPVLDKSGTLGSLNSYPLNCRYPPYTESKLKTLNFLIKNLDVYPSEVLKSRKFLSVAVLATSALAYYFNPFK
B7: TTHERM_00849320 (protein, UniProt Q23R52 1-192)
chain: MFIFDFFKNMLGYLGLYKKNGKILFLGLDNAGKTTLLRRLKDGRLVQHDPTLGSHTEELVLGNIRFKAFDLGGHEAVRKTWKNYFASIDGIVYLVDSSDRARFEESKIEFNKIIQTKELEKVPIVILGNKIDIQGAASEDELRINFGLANSSQIGIEKITEIDGRPIELFMCSVSKKIGYADGFQWLSKFLK
B8: TTHERM_00825210_RAB1C (protein, UniProt E1CAY3 1-210)
chain: MIKDYDHLFKLVIIGNSGVGKSSLLLRFSDDQFNESYLTTIGVDFRFRTLPIDQKQVKLQIWDTAGQERFRTITSAYYKGADGIVMVYDVTSENSFQDIDKFWISEVESYAEKNVELLLIGNKSDLEKQVSTQTAQEYAKSKNMEFFECSAKTSDSVQQAFLTLARKLMNKKEQLNKPKQYAPQGGSTQPRQNQSLSNRNNVQKQDKGCC

Molecular target: Msh6^Tt-3HA (T. thermophila) (UniProt Q23K54)
Experiment: affinity purification with mass spectrometry; 3 h of conjugation; cells lysed by sonication on ice in PBS; Msh6^Tt-3HA precipitated by its HA tag (Pierce HA-Tagged Magnetic IP/Co-IP kit), washes TBS and TBS-T; LC-MS/MS, MaxQuant iBAQ; WT lysate without HA tag as blank control; hits: iBAQ WT/iBAQ Msh6^Tt-3HA <= 0.05

Binder	binding
B1	binds
B2	binds
B3	binds
B4	binds
B5	binds
B6	binds
B7	binds
B8	binds
